From patent US20210380648

Biological target: Egr1 (UniProt P18146)
Experiment: activity in cells
Conditions: HEK293, indirect, protein in cells, protein details: full-length Egr1 expression plasmid, only the site is given

Sequence: CTGGGGGTGGGGGCA (double strand) [Klotho promoter Egr1 site 3]
- activity on this sequence (luciferase reporter with Klotho promoter): active

Sequence: GCGGGGGTG (double strand) [Klotho promoter Egr1 site 2]
- activity on this sequence (luciferase reporter with -289 or -1800 bp Klotho promoter): active
